Test results reported in the supplement of paper PMC6078165.
The reference is the same well before dosing, and untreated signal decays as well.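 Fibroblast labels denote human fibroblasts, mainly primary ones from uterus (C12385, HUF), lung (H6013), bone (Hs27A), adrenal (HADF) and skin (WS1), plus mammary HMF and breast cancer-associated Hs343T. Cancer cells are basal-like or mesenchymal-like triple-negative breast cancer lines. A hit is a response shift exceeding 3x replicate standard deviation. The tissue of the other fibroblasts is not given here.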

Tested on: MDAMB231
Experiment: relative JC-1 red fluorescence (viability) vs pre-drug, coculture with fibroblast (fraction); higher = more viable cancer cells
Description: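 JC-1 labelled TNBC cells cocultured 1:1 (1,500 cells each) with CellTrace Violet stained primary or stromal fibroblasts in 384-well plates in FluoroBrite medium, treated with one of 42 anticancer drugs at 0.1, 1, 10 or 100 uM. JC-1 red fluorescence (mitochondrial integrity in cancer cells only) was read by plate reader every 8 h for 72 h. Values are normalised to each well's pre-drug value. The stock of one drug was tenfold lower, so its dose labels may be too high.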

CC(C)C[C@H](NC(=O)[C@H](Cc1ccccc1)NC(=O)c1cnccn1)B(O)O [Bortezomib]
relative JC-1 red fluorescence
Details | 8 h | 16 h | 24 h | 32 h | 40 h | 48 h | 56 h | 64 h | 72 h
10 µM, coculture fibroblast: C12385 | 0.762 | 0.7 | 0.557 | 0.443 | 0.357 | 0.337 | 0.313 | 0.327 | 0.322
10 µM, coculture fibroblast: H6013 | 0.8774 | 0.7726 | 0.6627 | 0.57 | 0.51 | 0.526 | 0.502 | 0.501 | 0.482
10 µM, coculture fibroblast: H6019 | 0.765 | 0.687 | 0.613 | 0.541 | 0.51 | 0.518 | 0.516 | 0.56 | 0.557
10 µM, coculture fibroblast: H6076 | 0.9 | 0.758 | 0.6049 | 0.562 | 0.55 | 0.539 | 0.538 | 0.546 | 0.568
10 µM, coculture fibroblast: H6231 | 0.929 | 0.836 | 0.701 | 0.615 | 0.558 | 0.536 | 0.5 | 0.488 | 0.474
10 µM, coculture fibroblast: HADF | 0.8572 | 0.771 | 0.651 | 0.539 | 0.484 | 0.467 | 0.425 | 0.407 | 0.373
10 µM, coculture fibroblast: HCFa | 0.8841 | 0.7734 | 0.638 | 0.534 | 0.495 | 0.476 | 0.445 | 0.429 | 0.402
10 µM, coculture fibroblast: HCPF | 0.873 | 0.776 | 0.656 | 0.597 | 0.55 | 0.514 | 0.495 | 0.48 | 0.469
10 µM, coculture fibroblast: HHSteC | 0.8671 | 0.784 | 0.65 | 0.531 | 0.461 | 0.446 | 0.397 | 0.387 | 0.356
10 µM, coculture fibroblast: HMF | 0.86 | 0.762 | 0.631 | 0.574 | 0.532 | 0.499 | 0.488 | 0.5 | 0.5035
10 µM, coculture fibroblast: HPFa | 0.9419 | 0.8535 | 0.729 | 0.622 | 0.591 | 0.574 | 0.525 | 0.51 | 0.479
10 µM, coculture fibroblast: HUF | 0.875 | 0.773 | 0.793 | 0.641 | 0.588 | 0.578 | 0.541 | 0.56 | 0.548
10 µM, coculture fibroblast: Hs5 | 0.908 | 0.831 | 0.73 | 0.66 | 0.617 | 0.564 | 0.544 | 0.534 | 0.527
10 µM, coculture fibroblast: Hs27A | 0.903 | 0.801 | 0.693 | 0.61 | 0.545 | 0.534 | 0.491 | 0.472 | 0.434
10 µM, coculture fibroblast: Hs343T | 0.868 | 0.7329 | 0.618 | 0.549 | 0.506 | 0.479 | 0.45 | 0.446 | 0.44
10 µM, coculture fibroblast: WS1 | 0.758 | 0.679 | 0.619 | 0.503 | 0.442 | 0.426 | 0.4 | 0.418 | 0.41
100 µM, coculture fibroblast: C12385 | 0.773 | 0.78 | 0.604 | 0.51 | 0.42 | 0.389 | 0.358 | 0.357 | 0.338
100 µM, coculture fibroblast: H6013 | 0.914 | 0.816 | 0.723 | 0.655 | 0.576 | 0.582 | 0.55 | 0.542 | 0.515
100 µM, coculture fibroblast: H6019 | 0.79 | 0.7051 | 0.702 | 0.652 | 0.625 | 0.637 | 0.636 | 0.678 | 0.669
100 µM, coculture fibroblast: H6076 | 0.9361 | 0.808 | 0.661 | 0.611 | 0.574 | 0.545 | 0.539 | 0.538 | 0.54
100 µM, coculture fibroblast: H6231 | 0.93 | 0.817 | 0.687 | 0.635 | 0.579 | 0.561 | 0.539 | 0.525 | 0.513
100 µM, coculture fibroblast: HADF | 0.907 | 0.818 | 0.6712 | 0.542 | 0.485 | 0.477 | 0.423 | 0.413 | 0.375
100 µM, coculture fibroblast: HCFa | 0.885 | 0.756 | 0.626 | 0.519 | 0.466 | 0.444 | 0.399 | 0.372 | 0.338
100 µM, coculture fibroblast: HCPF | 0.901 | 0.7795 | 0.606 | 0.5597 | 0.5266 | 0.504 | 0.476 | 0.455 | 0.4377
100 µM, coculture fibroblast: HHSteC | 0.919 | 0.805 | 0.675 | 0.568 | 0.502 | 0.487 | 0.438 | 0.422 | 0.379
100 µM, coculture fibroblast: HMF | 0.9211 | 0.7972 | 0.684 | 0.62 | 0.545 | 0.5 | 0.481 | 0.476 | 0.464
100 µM, coculture fibroblast: HPFa | 0.9151 | 0.771 | 0.752 | 0.75 | 0.715 | 0.715 | 0.659 | 0.653 | 0.62
100 µM, coculture fibroblast: HUF | 0.8527 | 0.73048 | 0.651 | 0.527 | 0.47 | 0.458 | 0.417 | 0.424 | 0.415
100 µM, coculture fibroblast: Hs5 | 0.9094 | 0.774 | 0.66 | 0.602 | 0.55 | 0.5 | 0.473 | 0.46 | 0.453
100 µM, coculture fibroblast: Hs27A | 0.89 | 0.798 | 0.677 | 0.606 | 0.546 | 0.521 | 0.488 | 0.466 | 0.414
100 µM, coculture fibroblast: Hs343T | 0.907 | 0.762 | 0.6372 | 0.573 | 0.505 | 0.461 | 0.427 | 0.414 | 0.4
100 µM, coculture fibroblast: WS1 | 0.785 | 0.733 | 0.597 | 0.497 | 0.422 | 0.39 | 0.36 | 0.354 | 0.337
